Seven molecules from article PMC3000357 (PLoS Genetics, 2010) can be followed below.

These are yes or no findings as the source states them, for the method shown. Binding seen in cells or lysates may run through a third protein. A yes stands for co-enrichment or nearness to the bait. Other partners may have been found.

In assay [1] the target is T1, PcrA-SPA (Bacillus subtilis), O34580.
T1 chain: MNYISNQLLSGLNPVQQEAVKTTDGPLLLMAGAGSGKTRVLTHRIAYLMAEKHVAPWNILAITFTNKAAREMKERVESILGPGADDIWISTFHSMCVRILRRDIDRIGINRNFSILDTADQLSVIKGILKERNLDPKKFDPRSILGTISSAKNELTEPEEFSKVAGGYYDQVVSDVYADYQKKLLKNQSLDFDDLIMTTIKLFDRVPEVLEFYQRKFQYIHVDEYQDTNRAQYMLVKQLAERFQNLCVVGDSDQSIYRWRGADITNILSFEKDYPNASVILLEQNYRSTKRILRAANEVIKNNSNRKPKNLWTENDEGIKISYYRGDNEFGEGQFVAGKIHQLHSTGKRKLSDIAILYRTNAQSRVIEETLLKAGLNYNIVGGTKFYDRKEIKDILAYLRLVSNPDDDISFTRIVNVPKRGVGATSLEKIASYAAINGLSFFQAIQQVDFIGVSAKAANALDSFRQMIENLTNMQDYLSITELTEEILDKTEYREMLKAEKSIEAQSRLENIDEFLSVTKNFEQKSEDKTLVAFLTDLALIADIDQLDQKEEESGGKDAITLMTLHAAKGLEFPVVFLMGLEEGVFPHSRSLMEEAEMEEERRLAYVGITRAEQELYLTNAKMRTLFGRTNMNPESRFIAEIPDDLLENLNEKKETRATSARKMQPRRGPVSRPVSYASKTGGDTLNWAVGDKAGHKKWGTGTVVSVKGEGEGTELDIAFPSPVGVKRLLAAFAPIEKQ
Description: affinity purification with mass spectrometry; Tap-tag: tandem affinity purification of C-terminal SPA fusions expressed from their original locus in B. subtilis; SDS-PAGE, Coomassie, bands identified by MALDI-TOF. The settings on record: remark: other sources report otherwise.

For assay [2], the target named is hetero-tetrameric SSB/SSB-SPA complexes (Bacillus subtilis | Bacillus subtilis (endogenous in B. subtilis)). The assay is described as follows: affinity purification with mass spectrometry; Tap-tag of SSB-SPA expressed from Pxyl at amyE beside wild-type SSB, cells grown with or without 0.2% D-xylose; control strain with wild-type ssb at amyE; SDS-PAGE, Coomassie, MALDI-TOF.

Assay [3] has as its target T2, RecS-SPA (Bacillus subtilis) (UniProt P50729).
T2 sequence: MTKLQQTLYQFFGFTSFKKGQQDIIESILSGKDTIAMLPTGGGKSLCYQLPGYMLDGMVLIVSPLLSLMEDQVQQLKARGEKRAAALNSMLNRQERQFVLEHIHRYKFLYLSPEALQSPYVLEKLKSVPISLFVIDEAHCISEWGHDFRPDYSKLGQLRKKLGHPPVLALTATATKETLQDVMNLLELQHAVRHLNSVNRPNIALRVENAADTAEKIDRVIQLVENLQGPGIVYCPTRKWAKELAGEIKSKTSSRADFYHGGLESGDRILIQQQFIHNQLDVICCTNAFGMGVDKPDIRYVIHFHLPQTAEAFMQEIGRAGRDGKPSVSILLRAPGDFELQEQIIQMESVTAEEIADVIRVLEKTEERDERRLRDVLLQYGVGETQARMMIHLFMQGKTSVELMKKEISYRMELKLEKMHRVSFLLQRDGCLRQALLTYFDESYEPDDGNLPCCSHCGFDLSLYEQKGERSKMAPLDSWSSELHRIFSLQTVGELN
Description: affinity purification with mass spectrometry; Tap-tag: tandem affinity purification of C-terminal SPA fusions expressed from their original locus in B. subtilis; SDS-PAGE, Coomassie, bands identified by MALDI-TOF.

B1: RecA, endogenous in B. subtilis, P16971 1-348 (protein)
chain: MSDRQAALDMALKQIEKQFGKGSIMKLGEKTDTRISTVPSGSLALDTALGIGGYPRGRIIEVYGPESSGKTTVALHAIAEVQQQGGQAAFIDAEHALDPVYAQKLGVNIEELLLSQPDTGEQALEIAEALVRSGAVDIVVVDSVAALVPKAEIEGDMGDSHVGLQARLMSQALRKLSGAINKSKTIAIFINQIREKVGVMFGNPETTPGGRALKFYSSVRLEVRRAEQLKQGNDVMGNKTKIKVVKNKVAPPFRTAEVDIMYGEGISKEGEIIDLGTELDIVQKSGSWYSYEEERLGQGRENAKQFLKENKDIMLMIQEQIREHYGLDNNGVVQQQAEETQEELEFEE
Consider B1, for which the binding entry in assay [1] is “binds”.

B2: RecG, endogenous in B. subtilis (enzyme, UniProt O34942 1-682)
chain: MKQHQQTSIANIKGIGPETEKTLNELGIYDISDLLNYFPYRYDDYELRDLEEVKHDERVTVEGKVHSEPSLTYYGKKRNRLTFRLLVGHYLITAVCFNRPYLKKKLSLGSVVTVSGKWDKHRQTISVQELKNGPHQEDKSIEPVYSVKENVTVKMMRRFIQQALTQYADSLPDPLPEKLRKSYKLPDYYQALKAMHQPETREALKLARRRFVYEEFLLFQLKMQAFRKAEREQTQGIRQRFSNEELMRFIKSLPFPLTNAQSRVLREITADMSSPYRMNRLLQGDVGSGKTAVAAIALYAAILSGYQGALMVPTEILAEQHADSLVSLFEKWDVSVALLTSSVKGKRRKELLERLAAGEIDILVGTHALIQDEVEFKALSLVITDEQHRFGVEQRKKLRNKGQDPDVLFMTATPIPRTLAITVFGEMDVSVIDEMPAGRKRIETYWVKHDMLDRILAFVEKELKQGRQAYIICPLIEESDKLDVQNAIDVYNMLSDIFRGKWNVGLMHGKLHSDEKDQVMREFSANHCQILVSTTVVEVGVNVPNATIMVIYDADRFGLSQLHQLRGRVGRGEHQSFCILMADPKSETGKERMRIMSETNDGFELSEKDLELRGPGDFFGKKQSGMPEFKVADMVHDYRALETARQDAANLVASDAFWKEPEYAVLRDELLKSGVMDGEKLS
Regarding B2, in assay [2], the binding result was “binds”.

B3: RecQ, endogenous in B. subtilis (enzyme, UniProt O34748 1-591)
chain: MLHRAQSLLAHYFGYEKFRSGQDEAIRLVTEARQNTACIMPTGGGKSICYQIPALMFEGTTIVISPLISLMKDQVDALEEAGINAAYINSTQSNQEIYERLNGLKEGAYKLFYITPERLTSIEFIRILQGIDVPLVAIDEAHCISQWGHDFRPSYRNIEILFRELHDKPVIMALTATATPEVHDDICKQLHIQKENTVYTGFSRENLTFKVVKGENKDRFIDEYVQNNRHEAGIVYTATRKEADRIYERLKRNQVRAGRYHGGLADDVRKEQQERFLNDELQVMVATSAFGMGIDKSNIRFVLHAQIPKDMESYYQEAGRAGRDGLASECVLLFSPQDIMVQRFLIEQSEHEEKQKQDLKKLRQMVDYCHTEDCLQRFILMYFGEKEPDACGQCGNCTDTRAAHDVTREAQMVLSCIIRMKERFGKTMVAQVLAGSKNKKVLENGFSDLSTYGILKHQSVGEISDFIEFLISDDFIRMSDGTFPTLFVSSKGRNVLKGELSVARKEALKAAAITENDELFERLRMVRKEIAAEQGVPPFVVFSDQTLKEMSGKQPVNDDELLSIKGVGEQKRAKYGRLFLQEIQAYARMTD
Consider B3, for which the binding result in assay [2] is listed as “binds”.

B4: XseA, endogenous in B. subtilis (protein, UniProt P54521 1-448)
chain: MGEAAYVTVSALTKYIKRKFDVDPHLENIWIKGELSNVKIHTRGHIYFTLKDENARMQSVMFARQSERLPFKPENGMKVLVRGGISVYEPSGNYQLYAKEMQPDGVGALYLAYEELKKKLAGEGLFDDRYKKQIPAFPATIGVVTSPTGAAVRDVITTLKRRYPLVKVIVLPALVQGENASRSIVTRIEEANEKEICDVLIVGRGGGSIEELWAFNEEIVARAIFASNIPIISAVGHETDFTISDFVADIRAATPTGAAEIAVPHTTDLIERTKTAEVRMTRAMQQHLGQKKERIQTLQSSYAFRFPKRLYAQKEQQFDLAYQQFQAQLTALLDRKSRQLERETYRLEALHPHEQLKQARTRYQEQTNQLRKNMNIQMKQLHSQFQTVLGKLNALSPLQVMERGYSLAYKEDKLIKSVSQIEEQDRLEIKLKDGVLTCEVLEKRGEEK
For the molecule B4, the binding result in assay [2] is recorded as “binds”.

B5: YpbB, produced in E. coli with RecS (natural protein, Bacillus subtilis, UniProt P50728 1-352, looked up)
chain: MSLNYFDIMVLDCLCKINGERSGSAVFHLFKGKRSSQTIQDAGLFQTAKYFGMAAKCSRSDISASLDKLEKHSYLAPMSESDTYKVTASGAAVLRHALSERPWPVHCHGAHYQQAAGVLWKRLSLLVQVLSHKQQGSRQYIPVTKDHKTLHWVKKYLSRHTDHIEMAKSLFAMLEAHLKKIENKAAQIFVYSLTSHHRIGYTSRQLADTLKEDEWYVYIMFWASVHYFIHSLPECEDALLKDLLSDVHLDNALTESTRKTWQMVKQGFPIQRIAEIRKLKTATIEDHIVEISLHEPAFMINDYVSAEDQLQIAEFAKRMRTNKIKQIRDGLEQRFSYFQIRLALTKQVQQYD
notes: YpbB, protein of unknown function of Bacillus subtilis, encoded immediately upstream of recS; Could not be prepared as a soluble protein alone; source: E. coli, purified only as a complex with RecS (procedure in Text S1)
Take B5: the binding entry in assay [3] is “binds”.

B6: Ung, endogenous in B. subtilis (enzyme, UniProt P39615 1-225)
chain: MKQLLQDSWWNQLKEEFEKPYYQELREMLKREYAEQTIYPDSRDIFNALHYTSYDDVKVVILGQDPYHGPGQAQGLSFSVKPGVKQPPSLKNIFLELQQDIGCSIPNHGSLVSWAKQGVLLLNTVLTVRRGQANSHKGKGWERLTDRIIDVLSERERPVIFILWGRHAQMKKERIDTSKHFIIESTHPSPFSARNGFFGSRPFSRANAYLEKMGEAPIDWCIKDL
On to B6, for which the binding entry in assay [2] is listed as “binds”.

B7: RarA, endogenous in B. subtilis (protein, UniProt O34528 1-421)
chain: MKPLAYRMRPTKIEDIIGQQHLVAEDKIIGRMVQAKHLSSMILYGPPGIGKTSIATAIAGSTSIAFRKLNAVINNKKDMEIVAQEAKMSGQVILILDEVHRLDKGKQDFLLPYLENGMIILIGATTANPYHAINPAIRSRTQIFELEPLTPELIKQALERALHDEHRGLGTYSVSIDDQAMEHFAHGCGGDVRSALNALELAVLSTKESADGEIHITLETAEECLQKKSFSHDKDGDAHYDVLSAFQKSIRGSDANAALHYLARLIEAGDLESIARRLLVIAYEDIGLASPQAGPRVLNAIQTAERVGFPEARIPLANAVIELCLSPKSNSAILAIDEALADIRAGKIGDVPKHLKDAHYKGAQELGRGIDYKYPHNYDNGWVEQQYLPDPLKNKQYYKPKQTGKFESALKQVYDKLMKRK
For B7, the binding entry in assay [2] is recorded as “binds”.
